Results: paper PMC10297445
These are yes or no findings as the source states them, for the method shown. In cells and extracts the contact can be indirect. These calls come from enrichment with a bait or labelling near it, and not all partners need be listed. Where a sequence is shown, tags or fusion partners need not be part of it.

T1: GST-A2AR^284–410 (C-terminus of mouse adenosine A2A receptor fused to GST) (mouse) (UniProt Q60613)
T1 sequence: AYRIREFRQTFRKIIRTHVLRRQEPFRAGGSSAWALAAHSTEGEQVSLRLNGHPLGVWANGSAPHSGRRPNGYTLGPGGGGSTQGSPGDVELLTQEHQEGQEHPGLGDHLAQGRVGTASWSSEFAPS

T2: cMyc-A2AR^284–410 (C-terminus of mouse adenosine A2A receptor tagged with cMyc epitope) (mouse) (UniProt Q60613)
T2 sequence: T1 sequence

B1: O-acyltransferase (enzyme, UniProt Q61263 1-540)
chain: MSLRNRLSKSGENPEQDEAQKNFMDTYRNGHITMKQLIAKKRLLAAEAEELKPLFMKEVGCHFDDFVTNLIEKSASLDNGGCALTTFSILEEMKKNHRAKDLRAPPEQGKIFISRQSLLDELFEVDHIRTIYHMFIALLILFVLSTIVVDYIDEGRLVLEFNLLAYAFGKFPTVIWTWWAMFLSTLSIPYFLFQRWAHGYSKSSHPLIYSLVHGLLFLVFQLGVLGFVPTYVVLAYTLPPASRFILILEQIRLIMKAHSFVRENIPRVLNAAKEKSSKDPLPTVNQYLYFLFAPTLIYRDNYPRTPTVRWGYVAMQFLQVFGCLFYVYYIFERLCAPLFRNIKQEPFSARVLVLCVFNSILPGVLILFLSFFAFLHCWLNAFAEMLRFGDRMFYKDWWNSTSYSNYYRTWNVVVHDWLYYYVYKDLLWFFSKRFKSAAMLAVFALSAVVHEYALAICLSYFYPVLFVLFMFFGMAFNFIVNDSRKRPIWNIMVWASLFLGYGLILCFYSQEWYARQHCPLKNPTFLDYVRPRTWTCRYVF
B2: Isoform 2 of splicing factor 3B subunit 3 (protein, UniProt Q921M3-2 1-1122)
chain: MFLYNLTLQRATGISFAIHGNFSGTKQQEIVVSRGKILELLRPDPNTGKVHTLLTVEVFGVIRSLMAFRLTGGTKDYIVVGSDSGRIVILEYQPSKNMFEKIHQETFGKSGCRRIVPGQFLAVDPKGRAVMISAIEKQKLVYILNRDAAARLTISSPLEAHKANTLVYHVVGVDVGFENPMFACLEMDYEEADNDPTGEAAANTQQTLTFYELDLGLNHVVRKYSEPLEEHGNFLITVPGGSDGPSGVLICSENYITYKNFGDQPDIRCPIPRRRNDLDDPERGMIFVCSATHKTKSMFFFLAQTEQGDIFKITLETDEDMVTEIRLKYFDTVPVAAAMCVLKTGFLFVASEFGNHYLYQIAHLGDDDEEPEFSSAMPLEEGDTFFFQPRPLKNLVLVDELDSLSPILFCQIADLANEDTPQLYVACGRGPRSSLRVLRHGLEVSEMAVSELPGNPNAVWTVRRHIEDEFDAYIIVSFVNATLVLSIGETVEEVTDSGFLGTTPTLSCSLLGDDALVQVYPDGIRHIRADKRVNEWKTPGKKTIVKCAVNQRQVVIALTGGELVYFEMDPSGQLNEYTERKEMSADVVCMSLANVPPGEQRSRFLAVGLVDNTVRIISLDPSDCLQPLSMQALPAQPESLCIVEMGGTEKQDELGERGSIGFLYLNIGLQNGVLLRTVLDPVTGDLSDTRTRYLGSRPVKLFRVRMQGQEAVLAMSSRSWLSYSYQSRFHLTPLSYETLEFASGFASEQCPEGIVAISTNTLRILALEKLGAVFNQVAFPLQYTPRKFVIHPESNNLIIIETDHNAYTEATKAQRKQQILSPRSVAGGFVYTYKLVNNGEKLEFLHKTPVEEVPAAIAPFQGRVLIGVGKLLRVYDLGKKKLLRKCENKHIANYISGIQTIGHRVIVSDVQESFIWVRYKRNENQLIIFADDTYPRWVTTASLLDYDTVAGADKFGNICVVRLPPNTNDEVDEDPTGNKALWDRGLLNGASQKAEVIMNYHVGETVLSLQKTTLIPGGSESLVYTTLSGGIGILVPFTSHEDHDFFQHVEMHLRSEHPPLCGRDHLSFRSYYFPVKNVIDGDLCEQFNSMEPNKQKNVSEELDRTPPEVSKKLEDIRTRYAF
B3: DEAD (Asp-Glu-Ala-Asp) box polypeptide 21 (enzyme, UniProt Q9JIK5 1-851)
chain: MPGKLRSGAKLGSDGAEESMETLPKPSEKKTRKEKTKSKTEEATEGMEEAVSSKAKKTNKKGPSEDDVDPPKSRKAKKQEEEPQDDTASTSKTSKKKKEPLEKQADSETKEIITEEPSEEEADMPKPKKMKKGKEANGDAGEKSPKLKNGLSQPSEEEADIPKPKKMKKGKEANGDAGEKSPKLKNGLSQPSEEEVDIPKPKKMKKGKEASGDAGEKSPRLKDGLSQPSEPKSNSSDAPGEESSSETEKEIPVEQKEGAFSNFPISEETVKLLKARGVNFLFPIQAKTFHHVYSGKDLIAQARTGTGKTFSFAIPLIEKLQGGLQERKRGRAPQVLVLAPTRELANQVSKDFSDITKKLSVACFYGGTPYGGQIERMRSGIDILVGTPGRIKDHLQNGKLDLTKLKHVVLDEVDQMLDMGFADQVEEILCVAYKKDSEDNPQTLLFSATCPHWVFNVAKKYMKSTYEQVDLIGKKTQKAAITVEHLAIKCHWTERAAVIGDVIRVYSGHQGRTIIFCETKKDAQELSQNTCIKQDAQSLHGDIPQKQREITLKGFRNGNFGVLVATNVAARGLDIPEVDLVVQSCPPKDVESYIHRSGRTGRAGRTGVCICFYQNKEEYQLAQVEQKAGIKFKRIGVPSATEIIKASSKDAIRLLDSVPPTAISHFKQSAEKLIEEKGAVEALAAALAHISGATSVDQRSLINSQAGFVTMILRCSIEMPNISYAWKELKEQLGESIDAKVKGMVFLKGKLGVCFDVRTEAVTEIQEKWHDSRRWQLTVATEQPELEGPPDGYRGRMGQRDGSRGAFRGQRGGSRNFRGQGQRGGSRNFRGQRPGGGNRGQKRSFSKAFGQ

The binders below were run against T1, GST-A2AR^284–410 (C-terminus of mouse adenosine A2A receptor fused to GST) (mouse) (assay: affinity purification with mass spectrometry; pull-down: 20 µg MagneGST-bound GST-A2AR^284–410 (GST alone in parallel) incubated with 500 µg mouse peritoneal macrophage (IPMФ) lysate overnight at 4 °C; SDS-PAGE, trypsin digest, MALDI-TOF mass spectrometry; only the target purified).

binding, binds:
B1
B2
B3

What follows are binders tested against T2, cMyc-A2AR^284–410 (C-terminus of mouse adenosine A2A receptor tagged with cMyc epitope) (mouse) (assay: affinity purification with mass spectrometry; co-IP of cMyc-A2AR^284–410 with 1 µg anti-cMyc antibody (isotype control IgG1 in parallel) from 500 µg protein extract of transfected RAW 264.7 cells in RIPA buffer diluted with PBS, overnight at 4 °C; SDS-PAGE, trypsin digest, MALDI-TOF mass spectrometry).

binding, binds:
B1
B2
B3
